Data as given in PubChem BioAssay AID652272 (Drosophila RNAi Screening Center, 2013)
Purpose: 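Finding fly genes that regulate Hedgehog signal transduction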 (primary screen). Cells: Drosophila clone 8 (Cl8) cells. Knock-down reagent: long dsRNA against Drosophila genes. Measurement: 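Plate reader light from a firefly reporter under a ptc promoter fragment that responds to Hedgehog, with Renilla light as transfection reference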. Reading the numbers: firefly Hh reporter signal: higher = more ptc reporter light; Renilla reference signal: higher = more Renilla control light. Active means: 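Hit when the z-score averaged over two replicates is under -2 or over +3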. Meaning of the calls: active = hit: reporter lowered or raised; inactive = not a hit.
The deposit covers about 21,000 reagents; below is a random part of those with a known target gene and a result. In the full data, 503 (2.4%) got an active call. 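Raw plate light values, not normalised; calls rest on replicate z-scores that were not deposited; hits include reporter decreases as well as increases.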 No sequences are given here. Not given: the amount of reagent, the time to read-out.

What is on record for coro [DRSC05007]?
firefly Hh reporter signal, replicate 1: 1.30e5; firefly Hh reporter signal, replicate 2: 1.12e5; Renilla reference signal, replicate 1: 5792; Renilla reference signal, replicate 2: 4359; call: inactive

For CG11656 [DRSC14338], what was measured?
firefly Hh reporter signal, replicate 1: 1.17e5; firefly Hh reporter signal, replicate 2: 77496; Renilla reference signal, replicate 1: 4589; Renilla reference signal, replicate 2: 3459; call: inactive

For CG9445 [DRSC05006], how do the results read?
firefly Hh reporter signal, replicate 1: 1.08e5; firefly Hh reporter signal, replicate 2: 81450; Renilla reference signal, replicate 1: 2556; Renilla reference signal, replicate 2: 5751; call: inactive

For fru [DRSC16951], how do the results read?
firefly Hh reporter signal, replicate 1: 3.64e5; firefly Hh reporter signal, replicate 2: 62423; Renilla reference signal, replicate 1: 20171; Renilla reference signal, replicate 2: 1997; call: inactive

With fru [DRSC16952], what was measured?
firefly Hh reporter signal, replicate 1: 2.32e5; firefly Hh reporter signal, replicate 2: 1.24e6; firefly Hh reporter signal, replicate 3: 2.13e5; Renilla reference signal, replicate 1: 928; Renilla reference signal, replicate 2: 54144; call: inactive

How did the screen score fru [DRSC16953]?
firefly Hh reporter signal, replicate 1: 1.04e6; firefly Hh reporter signal, replicate 2: 4.94e5; firefly Hh reporter signal, replicate 3: 1.91e5; Renilla reference signal, replicate 1: 46940; Renilla reference signal, replicate 2: 4752; call: inactive

For Csp [DRSC11860], how do the results read?
firefly Hh reporter signal, replicate 1: 1.30e5; firefly Hh reporter signal, replicate 2: 1.00e5; Renilla reference signal, replicate 1: 5667; Renilla reference signal, replicate 2: 3482; call: inactive

For Adgf-B [DRSC10568], how do the results read?
firefly Hh reporter signal, replicate 1: 1.00e5; Renilla reference signal, replicate 1: 1650; Renilla reference signal, replicate 2: 3196; call: inactive

Which result is listed for Ir60d [DRSC04218]?
firefly Hh reporter signal, replicate 1: 1.18e5; firefly Hh reporter signal, replicate 2: 78251; Renilla reference signal, replicate 1: 1665; Renilla reference signal, replicate 2: 7141; call: inactive

Which result is listed for ND-MNLL [DRSC18159]?
firefly Hh reporter signal, replicate 1: 60939; firefly Hh reporter signal, replicate 2: 1.80e5; Renilla reference signal, replicate 1: 2413; Renilla reference signal, replicate 2: 9408; call: inactive

With Dhc36C [DRSC03315], what does the deposit list?
firefly Hh reporter signal, replicate 1: 1.34e5; firefly Hh reporter signal, replicate 2: 72276; Renilla reference signal, replicate 1: 3681; Renilla reference signal, replicate 2: 7056; call: inactive

For Coq5 [DRSC19849], what was measured?
firefly Hh reporter signal, replicate 1: 1.27e5; firefly Hh reporter signal, replicate 2: 7.25e5; firefly Hh reporter signal, replicate 3: 3.48e5; Renilla reference signal, replicate 1: 2881; Renilla reference signal, replicate 2: 4668; call: inactive

With Gdap1 [DRSC10437], what was measured?
firefly Hh reporter signal, replicate 1: 45530; firefly Hh reporter signal, replicate 2: 50980; Renilla reference signal, replicate 1: 3978; Renilla reference signal, replicate 2: 3461; call: inactive

For CG4860 [DRSC15664], what does the deposit list?
firefly Hh reporter signal, replicate 1: 1.92e5; firefly Hh reporter signal, replicate 2: 8.49e5; firefly Hh reporter signal, replicate 3: 1.13e5; Renilla reference signal, replicate 1: 8395; Renilla reference signal, replicate 2: 47936; call: inactive

2 entries from above, sorted by “firefly Hh reporter signal, replicate 2”, descending:
Coq5 [DRSC19849]: firefly Hh reporter signal, replicate 1 = 1.27e5; firefly Hh reporter signal, replicate 2 = 7.25e5; firefly Hh reporter signal, replicate 3 = 3.48e5; Renilla reference signal, replicate 1 = 2881; Renilla reference signal, replicate 2 = 4668; call = inactive
Dhc36C [DRSC03315]: firefly Hh reporter signal, replicate 1 = 1.34e5; firefly Hh reporter signal, replicate 2 = 72276; Renilla reference signal, replicate 1 = 3681; Renilla reference signal, replicate 2 = 7056; call = inactive
